Data on one substance can be found in article PMC10682013.

Amino acid sequences for entries named in this document (tags omitted).
UniProt P52732: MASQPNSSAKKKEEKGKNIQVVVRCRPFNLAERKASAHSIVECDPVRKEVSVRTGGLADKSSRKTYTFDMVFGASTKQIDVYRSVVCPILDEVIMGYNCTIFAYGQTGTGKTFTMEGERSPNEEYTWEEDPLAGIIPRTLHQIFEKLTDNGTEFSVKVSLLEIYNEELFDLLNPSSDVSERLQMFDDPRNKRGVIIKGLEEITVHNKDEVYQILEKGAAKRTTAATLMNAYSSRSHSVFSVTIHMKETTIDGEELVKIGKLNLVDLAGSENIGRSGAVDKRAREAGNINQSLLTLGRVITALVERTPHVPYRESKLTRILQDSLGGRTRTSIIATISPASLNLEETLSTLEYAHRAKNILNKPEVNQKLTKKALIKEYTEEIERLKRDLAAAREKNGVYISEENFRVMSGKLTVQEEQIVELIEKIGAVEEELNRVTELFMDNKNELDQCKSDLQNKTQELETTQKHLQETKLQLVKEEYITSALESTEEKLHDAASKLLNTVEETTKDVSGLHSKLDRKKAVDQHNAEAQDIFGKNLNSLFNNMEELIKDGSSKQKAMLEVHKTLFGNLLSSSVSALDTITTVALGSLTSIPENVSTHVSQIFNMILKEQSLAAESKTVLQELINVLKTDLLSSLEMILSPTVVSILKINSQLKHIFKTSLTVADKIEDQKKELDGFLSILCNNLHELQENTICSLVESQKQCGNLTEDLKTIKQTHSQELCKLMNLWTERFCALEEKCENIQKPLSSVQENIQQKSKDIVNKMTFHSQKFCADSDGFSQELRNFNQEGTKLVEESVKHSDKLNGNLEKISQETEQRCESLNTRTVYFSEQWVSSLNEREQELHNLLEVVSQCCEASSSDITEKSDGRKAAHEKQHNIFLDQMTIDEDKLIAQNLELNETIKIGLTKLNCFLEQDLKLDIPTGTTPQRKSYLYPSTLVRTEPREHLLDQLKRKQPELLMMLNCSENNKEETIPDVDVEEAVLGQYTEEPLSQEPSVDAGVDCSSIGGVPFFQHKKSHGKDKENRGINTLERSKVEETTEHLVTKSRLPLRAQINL

For this experiment, the target named is 3×Flag-TACC3 (Transforming acidic coiled-coil-containing protein 3) (UniProt Q9Y6A5). Description: affinity purification with mass spectrometry; 3×Flag-TACC3 expressed in HEK293T cells; whole cell lysate; precipitated with an IgG antibody specific to 3×Flag, normal IgG as control; proteins in the precipitate identified by mass spectrometry.

No constants are given. Whether binding was seen depends on the method and setting. Binding seen in cells or lysates may run through a third protein. Here binding means that the protein was enriched with, or labelled near, the bait; the list need not be complete.

As to “Kinesin Family Member 11 (KIF11), endogenous (from UniProt P52732 1-1056)”, the binding result is on record as “binds”.
